Test results reported in patent EP0731710B1, “THYMOSINE ALPHA 1 CONTAINING COMPOSITIONS FOR THE TREATMENT OF PATIENTS HAVING DECOMPENSATED LIVER DISEASE” (ALPHA 1 BIOMEDICALS, INC., priority 1993, dated 2003).
At least one peptide structure holds a part that was inferred or is arguable (an end, a ring closure or a residue). No end group written: not given here.

System: Hepatitis B virus
Assay: Treatment of Hepatitis B patients having hepatic decompensation with Thymosin alpha 1 (case reports): serum Hepatitis B virus DNA and clinical outcome
Assay type: in vivo, patient

In the case of “Ac-SDAAVDTSSEITTKDLKEKKEVVEEAEN [Thymosin alpha 1]”, the fatigue (Patient 1, 1.6 mg subcutaneously twice weekly, after approximately 3 months) is reported as “less fatigue”, the “Hepatitis B DNA PCR” value (Patient 1, 1.6 mg subcutaneously twice weekly, after roughly 6 months) is reported as “negative” and the “resolution of Hepatitis B virus infection” value (three patients with cirrhosis and hepatic decompensation, 1.6 mg subcutaneously twice weekly for 3.5 weeks to 6 months) is reported as “One of these patients”.
